# Measurements as given in the supplement of paper PMC12067093, “Discovery and optimisation of a covalent ligand for TRIM25 and its application to targeted protein ubiquitination” (Chemical Science, 2025).
# Sequences of proteins named here, by UniProt entry; tags and fusion partners are left off. A change or cut given only in a name is not applied to a line headed by its entry.
# UniProt O43592: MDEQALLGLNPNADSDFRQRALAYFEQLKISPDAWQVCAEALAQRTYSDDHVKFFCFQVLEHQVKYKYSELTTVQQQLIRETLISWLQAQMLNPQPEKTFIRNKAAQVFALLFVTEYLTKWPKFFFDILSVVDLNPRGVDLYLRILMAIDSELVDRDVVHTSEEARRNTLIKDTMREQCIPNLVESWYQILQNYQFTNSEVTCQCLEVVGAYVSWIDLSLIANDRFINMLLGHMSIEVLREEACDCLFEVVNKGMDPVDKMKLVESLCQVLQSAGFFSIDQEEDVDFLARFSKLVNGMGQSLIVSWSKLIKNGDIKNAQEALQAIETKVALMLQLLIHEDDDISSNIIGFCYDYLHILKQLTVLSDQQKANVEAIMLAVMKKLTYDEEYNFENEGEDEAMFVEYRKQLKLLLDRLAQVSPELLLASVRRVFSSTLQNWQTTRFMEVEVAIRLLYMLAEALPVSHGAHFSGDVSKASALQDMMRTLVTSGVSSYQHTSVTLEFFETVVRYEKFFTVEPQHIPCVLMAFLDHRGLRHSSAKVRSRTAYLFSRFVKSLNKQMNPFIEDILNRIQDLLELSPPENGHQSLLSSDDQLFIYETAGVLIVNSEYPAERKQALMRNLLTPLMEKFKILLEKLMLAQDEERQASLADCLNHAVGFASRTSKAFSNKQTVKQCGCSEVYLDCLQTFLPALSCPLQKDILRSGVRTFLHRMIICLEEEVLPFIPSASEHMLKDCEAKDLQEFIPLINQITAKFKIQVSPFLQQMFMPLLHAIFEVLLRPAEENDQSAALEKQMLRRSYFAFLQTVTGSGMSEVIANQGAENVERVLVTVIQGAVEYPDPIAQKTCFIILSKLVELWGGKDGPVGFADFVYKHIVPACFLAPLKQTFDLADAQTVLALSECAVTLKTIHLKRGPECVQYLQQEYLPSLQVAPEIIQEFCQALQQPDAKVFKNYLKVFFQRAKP
# UniProt Q9UGR2: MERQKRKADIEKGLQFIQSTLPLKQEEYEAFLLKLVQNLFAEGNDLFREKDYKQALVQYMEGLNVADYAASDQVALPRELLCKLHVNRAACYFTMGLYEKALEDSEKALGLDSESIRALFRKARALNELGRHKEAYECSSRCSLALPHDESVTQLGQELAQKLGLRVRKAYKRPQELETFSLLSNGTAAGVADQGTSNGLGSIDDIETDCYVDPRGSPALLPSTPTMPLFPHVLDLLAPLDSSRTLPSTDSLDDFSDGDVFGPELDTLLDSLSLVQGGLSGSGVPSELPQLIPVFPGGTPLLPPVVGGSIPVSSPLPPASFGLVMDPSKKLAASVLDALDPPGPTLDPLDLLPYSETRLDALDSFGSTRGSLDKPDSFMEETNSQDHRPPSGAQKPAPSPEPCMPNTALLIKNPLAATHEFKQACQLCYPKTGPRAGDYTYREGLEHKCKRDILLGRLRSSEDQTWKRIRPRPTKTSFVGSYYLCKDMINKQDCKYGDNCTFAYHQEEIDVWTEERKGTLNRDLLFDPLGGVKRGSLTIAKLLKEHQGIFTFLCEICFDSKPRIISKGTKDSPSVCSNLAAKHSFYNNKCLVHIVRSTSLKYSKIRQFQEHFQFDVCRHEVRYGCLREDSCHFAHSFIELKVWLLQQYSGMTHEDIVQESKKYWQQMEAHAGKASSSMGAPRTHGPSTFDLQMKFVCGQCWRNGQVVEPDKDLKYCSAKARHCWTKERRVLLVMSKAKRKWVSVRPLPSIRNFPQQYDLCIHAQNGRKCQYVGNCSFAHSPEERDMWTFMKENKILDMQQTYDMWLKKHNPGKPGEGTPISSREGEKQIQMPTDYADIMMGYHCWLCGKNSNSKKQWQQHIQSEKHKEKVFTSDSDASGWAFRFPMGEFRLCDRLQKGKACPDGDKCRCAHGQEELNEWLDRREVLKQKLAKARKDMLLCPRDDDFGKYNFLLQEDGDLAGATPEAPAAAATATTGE
# Some of the results follow.
# Assays:
# [1] = target: XPOT_O43592_877_HIVPACFLAPLK (UniProt O43592); test: probe-labelled cysteine peptide fold change vs DMSO (competition) (log2 fold change); higher = less target engagement (more negative = stronger competition); conditions: THP-1, incubation time: 4 h
# [2] = target: ZC3H7B_Q9UGR2_590_CLVHIVR (UniProt Q9UGR2); test: as above; conditions: THP-1, incubation time: 4 h
# 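Further: competitive chemoproteomic profiling in live THP-1 cells with an iodoacetamide desthiobiotin (IA-DTB) probe, comparing probe-labelled peptide intensities in compound-treated cells against DMSO-treated controls.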
structure (smiles),measurement,setting,value
CC1Cc2ccccc2N1C(=O)C1CCCN(C(=O)CCl)C1 (mixture of isomers) [TRIM25 ligand 11 (diastereomer mixture)],probe-labelled cysteine peptide fold change,[1]; 10 µM,0.0433
same,probe-labelled cysteine peptide fold change,[1]; 50 µM,0.0734
same,probe-labelled cysteine peptide fold change,[2]; 10 µM,0.0726
same,probe-labelled cysteine peptide fold change,[2]; 50 µM,0.112
